Reference: PMC11369092
No constants are given. Whether binding was seen depends on the method and setting. Binding seen in cells or lysates may run through a third protein. Here binding means that the protein was enriched with, or labelled near, the bait; the list need not be complete. Where a sequence is shown, tags or fusion partners need not be part of it.

Target: T1, Flag-SMYD5 (immunoprecipitated from cells) (UniProt Q6GMV2)
T1 sequence: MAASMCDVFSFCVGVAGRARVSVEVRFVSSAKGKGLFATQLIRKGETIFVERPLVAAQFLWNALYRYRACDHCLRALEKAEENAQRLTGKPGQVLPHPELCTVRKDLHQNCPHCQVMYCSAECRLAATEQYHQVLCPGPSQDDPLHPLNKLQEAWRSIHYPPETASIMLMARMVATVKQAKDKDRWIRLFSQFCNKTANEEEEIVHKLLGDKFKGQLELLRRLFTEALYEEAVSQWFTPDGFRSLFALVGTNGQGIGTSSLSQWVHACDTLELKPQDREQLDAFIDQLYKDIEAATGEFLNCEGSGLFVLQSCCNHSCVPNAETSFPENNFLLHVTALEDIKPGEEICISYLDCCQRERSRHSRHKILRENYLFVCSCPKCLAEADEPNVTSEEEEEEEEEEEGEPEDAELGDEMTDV
Experiment: affinity purification with mass spectrometry; Flag-SMYD5 immunoprecipitation from HeLa cytosol extracts, MS identification of interacting proteins

Substance: RPL40 (endogenous) (human (endogenous in HeLa))
- binding: binds
